Test results taken from publication doi:10.1101/245597.
Like-named read-outs stand apart in the source and are kept apart here. These are yes or no findings as the source states them, for the method shown. In cells and extracts the contact can be indirect. Some results given as binding are weak or reduced against the parent protein; the word gives no strength. Where a sequence is shown, tags or fusion partners need not be part of it.

T1: RNF4DN (C132/135S), dominant-negative RING-finger mutant of RNF4 (human (cDNA from a HeLa cDNA library)) (UniProt P78317)
T1 sequence: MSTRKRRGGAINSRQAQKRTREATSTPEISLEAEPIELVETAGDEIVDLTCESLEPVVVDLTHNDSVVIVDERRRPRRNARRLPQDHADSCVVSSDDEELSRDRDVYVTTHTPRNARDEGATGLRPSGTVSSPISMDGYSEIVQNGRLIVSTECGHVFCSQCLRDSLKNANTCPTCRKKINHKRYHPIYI

T2: Centromeric protein B (CENP-B), FLAG-tagged, wild type (human) (UniProt P07199)
T2 sequence: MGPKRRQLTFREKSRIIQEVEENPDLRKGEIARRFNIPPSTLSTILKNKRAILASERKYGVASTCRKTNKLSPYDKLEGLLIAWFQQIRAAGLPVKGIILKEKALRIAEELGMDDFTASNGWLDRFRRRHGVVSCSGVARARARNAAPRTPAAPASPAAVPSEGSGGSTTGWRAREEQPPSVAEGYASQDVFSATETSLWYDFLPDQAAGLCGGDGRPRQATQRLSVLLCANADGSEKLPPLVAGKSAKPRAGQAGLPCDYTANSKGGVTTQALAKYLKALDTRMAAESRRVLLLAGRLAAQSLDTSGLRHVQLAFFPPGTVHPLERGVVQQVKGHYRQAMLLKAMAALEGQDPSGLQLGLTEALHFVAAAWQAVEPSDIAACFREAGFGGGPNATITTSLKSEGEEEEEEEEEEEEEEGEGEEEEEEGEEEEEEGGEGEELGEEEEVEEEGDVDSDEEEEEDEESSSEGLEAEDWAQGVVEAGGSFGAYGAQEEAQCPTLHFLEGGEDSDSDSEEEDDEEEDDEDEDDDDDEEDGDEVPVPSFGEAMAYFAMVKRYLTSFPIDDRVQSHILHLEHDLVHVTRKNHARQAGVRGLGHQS


Columns and labels:
Assay in all cases: co-IP
[1] = biological target: T1, RNF4DN (C132/135S), dominant-negative RING-finger mutant of RNF4 (human (cDNA from a HeLa cDNA library))
[2] = biological target: T1, RNF4DN (C132/135S), dominant-negative RING-finger mutant of RNF4 (human (cDNA from a HeLa cDNA library)); remark: listed apart in the source
[3] = biological target: T2, Centromeric protein B (CENP-B), FLAG-tagged, wild type (human)
[4] = biological target: T2, Centromeric protein B (CENP-B), FLAG-tagged, wild type (human); remark: listed apart in the source

Binder	binding [1]	binding [2]	binding [3]	binding [4]
Centromeric protein B (CENP-B), FLAG-tagged, wild type (protein, UniProt P07199 1-599) MGPKRRQLTFREKSRIIQEVEENPDLRKGEIARRFNIPPSTLSTILKNKRAILASERKYGVASTCRKTNKLSPYDKLEGLLIAWFQQIRAAGLPVKGIILKEKALRIAEELGMDDFTASNGWLDRFRRRHGVVSCSGVARARARNAAPRTPAAPASPAAVPSEGSGGSTTGWRAREEQPPSVAEGYASQDVFSATETSLWYDFLPDQAAGLCGGDGRPRQATQRLSVLLCANADGSEKLPPLVAGKSAKPRAGQAGLPCDYTANSKGGVTTQALAKYLKALDTRMAAESRRVLLLAGRLAAQSLDTSGLRHVQLAFFPPGTVHPLERGVVQQVKGHYRQAMLLKAMAALEGQDPSGLQLGLTEALHFVAAAWQAVEPSDIAACFREAGFGGGPNATITTSLKSEGEEEEEEEEEEEEEEGEGEEEEEEGEEEEEEGGEGEELGEEEEVEEEGDVDSDEEEEEDEESSSEGLEAEDWAQGVVEAGGSFGAYGAQEEAQCPTLHFLEGGEDSDSDSEEEDDEEEDDEDEDDDDDEEDGDEVPVPSFGEAMAYFAMVKRYLTSFPIDDRVQSHILHLEHDLVHVTRKNHARQAGVRGLGHQS	no binding (condition: without NEM)	binds	–	–
RNF4DN (C132/135S), dominant-negative RING-finger mutant of RNF4 (enzyme, UniProt P78317 1-190) MSTRKRRGGAINSRQAQKRTREATSTPEISLEAEPIELVETAGDEIVDLTCESLEPVVVDLTHNDSVVIVDERRRPRRNARRLPQDHADSCVVSSDDEELSRDRDVYVTTHTPRNARDEGATGLRPSGTVSSPISMDGYSEIVQNGRLIVSTECGHVFCSQCLRDSLKNANTCPTCRKKINHKRYHPIYI	–	–	no binding (condition: without NEM)	binds
